For 1 substance, binding results are on record in patent US20200069684A1.

Protein sequences, listed by entry. Tags and fused reporters are not part of them. Lines headed by an entry give the natural chain unless they say otherwise; changes in a name come on top.
UniProt P61586: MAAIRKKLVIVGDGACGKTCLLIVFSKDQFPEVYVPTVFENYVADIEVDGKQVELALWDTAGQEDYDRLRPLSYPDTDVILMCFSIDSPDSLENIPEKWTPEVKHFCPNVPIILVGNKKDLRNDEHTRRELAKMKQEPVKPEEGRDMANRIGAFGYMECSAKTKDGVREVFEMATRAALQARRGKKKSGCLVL

The target of assay [1] is T1, VAV1 protein (Homo sapiens (Human)) (UniProt P15498).
T1 sequence: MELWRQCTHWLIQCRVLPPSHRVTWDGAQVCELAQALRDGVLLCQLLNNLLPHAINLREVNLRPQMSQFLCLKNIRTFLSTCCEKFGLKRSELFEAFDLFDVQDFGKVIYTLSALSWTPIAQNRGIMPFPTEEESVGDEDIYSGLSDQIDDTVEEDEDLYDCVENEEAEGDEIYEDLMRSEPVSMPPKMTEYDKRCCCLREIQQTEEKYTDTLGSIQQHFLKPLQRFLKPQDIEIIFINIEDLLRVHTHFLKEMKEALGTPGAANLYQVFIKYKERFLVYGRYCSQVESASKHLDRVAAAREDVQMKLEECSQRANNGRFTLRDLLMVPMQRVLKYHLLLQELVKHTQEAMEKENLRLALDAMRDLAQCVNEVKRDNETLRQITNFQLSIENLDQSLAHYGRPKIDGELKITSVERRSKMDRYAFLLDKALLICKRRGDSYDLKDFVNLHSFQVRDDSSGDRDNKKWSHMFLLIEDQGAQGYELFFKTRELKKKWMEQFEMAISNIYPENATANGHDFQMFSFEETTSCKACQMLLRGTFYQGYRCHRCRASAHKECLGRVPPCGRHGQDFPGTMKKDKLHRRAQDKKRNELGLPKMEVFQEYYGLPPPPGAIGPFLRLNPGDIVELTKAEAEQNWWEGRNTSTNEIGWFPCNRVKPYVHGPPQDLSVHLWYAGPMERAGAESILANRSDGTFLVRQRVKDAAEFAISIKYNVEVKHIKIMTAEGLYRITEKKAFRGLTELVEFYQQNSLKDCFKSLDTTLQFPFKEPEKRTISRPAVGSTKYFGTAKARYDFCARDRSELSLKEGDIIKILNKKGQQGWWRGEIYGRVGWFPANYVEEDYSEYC
In words: co-immunoprecipitation with anti-flagM2 antibody from SU9T01 cell lysate, Western blot with anti-VAV1 antibody.

For assay [2], the target named is T1, VAV1 protein (Homo sapiens (Human)). Description: co-immunoprecipitation with anti-flagM2 antibody from Jurkat cell lysate, Western blot with anti-VAV1 antibody.

No constants are given. Whether binding was seen depends on the method and setting. In cells and extracts the contact can be indirect. Some entries that bind do so weakly or less than the wild type.

As to “G17V RHOA mutant (from UniProt P61586 1-190)”, the binding entry in assay [1] and in assay [2] was “binds” each time.
